The values that follow come from PMC3313996.

Sequences of proteins named here, by UniProt entry; tags and fusion partners are left off.
UniProt P16790: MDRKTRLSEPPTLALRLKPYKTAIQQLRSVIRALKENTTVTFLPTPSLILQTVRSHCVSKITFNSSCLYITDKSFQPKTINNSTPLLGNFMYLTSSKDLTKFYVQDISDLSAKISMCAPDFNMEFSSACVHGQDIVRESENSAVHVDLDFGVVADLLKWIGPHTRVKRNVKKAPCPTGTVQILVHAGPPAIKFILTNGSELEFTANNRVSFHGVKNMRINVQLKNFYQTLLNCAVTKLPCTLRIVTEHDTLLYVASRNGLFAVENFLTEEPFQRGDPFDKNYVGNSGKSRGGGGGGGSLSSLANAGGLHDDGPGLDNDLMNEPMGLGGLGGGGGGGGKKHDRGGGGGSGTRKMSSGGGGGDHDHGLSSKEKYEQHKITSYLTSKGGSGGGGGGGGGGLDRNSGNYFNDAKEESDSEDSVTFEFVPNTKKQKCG
UniProt Q12824: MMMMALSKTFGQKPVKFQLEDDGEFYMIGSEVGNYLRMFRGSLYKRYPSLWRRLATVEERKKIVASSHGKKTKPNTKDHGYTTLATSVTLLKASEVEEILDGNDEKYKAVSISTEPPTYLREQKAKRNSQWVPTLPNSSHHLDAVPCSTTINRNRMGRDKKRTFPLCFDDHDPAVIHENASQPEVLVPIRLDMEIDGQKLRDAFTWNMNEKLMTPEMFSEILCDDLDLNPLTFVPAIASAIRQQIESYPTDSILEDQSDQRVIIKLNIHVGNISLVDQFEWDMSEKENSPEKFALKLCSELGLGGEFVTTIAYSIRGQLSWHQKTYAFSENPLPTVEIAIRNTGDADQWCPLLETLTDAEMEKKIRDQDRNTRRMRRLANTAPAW

Assay [1] addresses His6-UL44 (human cytomegalovirus (HCMV)) (UniProt P16790). Briefly: pull-down; 15 µg His6-UL44 immobilised on Dynabeads His-Tag; 20 µg GST-SMARCB1 or GST in pull-down buffer (6.5 mM Na-phosphate pH 7.4, 140 mM NaCl, 50 mM imidazole, 0.01% Tween-20); SDS-PAGE, Coomassie blue; both purified.
Assay [2] addresses GST-SMARCB1 (human full-length SMARCB1 in pDEST15) (human) (UniProt Q12824). Briefly: pull-down; 10 µg purified GST-SMARCB1 on BcMag GST magnetic beads, 20 µg purified recombinant UL114 added; western blot; both purified. For orientation: In western blotting, separated proteins are transferred to a membrane and probed.

Results are given in words; binding and its absence hold for the method and conditions named. Some entries that bind do so weakly or less than the wild type.

For “GST-SMARCB1 (human full-length SMARCB1 in pDEST15) (from UniProt Q12824 1-385)”, the binding result in assay [1] is “binds”.

B1: purified recombinant UL114 (enzyme, UniProt P16769 1-250)
chain: MALKQWMLANIADNKGSLLTPDEQARVFCLSADWIRFLSLPDHDTVLLRDTVAAVEGARQLEMVYPAPEHVHRWSYLCPPEQVRVVIVGQDPYCDGSASGLAFGTLAGRPPPPSLNNVFRELARTVDGFQRPASGCLDAWARRGVLLLNTVFTVVHGQPGSHRHLGWQTLSNHVIRRLSERREHLVFMLWGADAHTCEYLIDRRRHLVLKSCHPSPRNTTRAFVGNDHFILANAYLDTHYRETMDWRLCG
Regarding B1, the binding entry in assay [2] is reported as “binds”.
